The values that follow come from patent publication US11603386B2, “Insect, tick, and mite repellent derived from Xenorhabdus budapestensis” (Wisconsin Alumni Research Foundation, priority 2017, dated 2023).

The data set relates to Aedes aegypti. Nature of the data set: Repellent screening assay (in vitro membrane feeding, Hemotek feeder, treated cloth). Format: in vivo. The settings on record: probit dose-response of repellency, adult females, 30 min exposure. The source says:
FIG. 1 is a photograph of the equipment used for the repellent screening assay. The apparatus includes a temperature-controlled feeder unit which includes a collagen casing covered by conventional cheese cloth. The collagen mimics the surface of human and is in contact with a heating element (not seen in FIG. 1) whose temperature is controlled by the temperature controller. The collagen pad is saturated with a solution that mimics human blood. The compound whose repellency is to be tested is applied to the cheese cloth, which is then affixed to the collagen pad. In the main panel in FIG. 1, the feeder unit is shown in its operational position, on top of a container in which are mosquitos (or any other arthropod) that is to be repelled. […] In practice, a known amount of putative repellent is applied to the cheese cloth. Unfed mosquitos, for example, are within the mosquito container. The feeder unit is then placed on top of the mosquito container for a pre-determined amount of time. The mosquitos are then sacrificed and examined to determine how many mosquitos fed (i.e., were not repelled) and how many mosquitos were still unfed after the test (i.e., were repelled). In this fashion, very reliable data can be generated regarding the effectiveness of any putative repellent composition. See Katritzky, A. R., et al. (2008) Proc. Nat. […]

As for `CCN(CC)C(=O)c1cccc(C)c1` [DEET, N,N-diethyl-3-methylbenzamide], the “Slope ± SE” value turned out to be 1.09 ± 0.35.

With `CCC(C)OC(=O)N1CCCCC1CCO` (centres unmarked) [Picaridin], the “Slope ± SE” value is recorded as 1.73 ± 0.35.
